Measurements published in the supplement of paper PMC4604168 (melanoma cell lines).
The other results are listed elsewhere or left out. Many values rest on one well or one pass, so single values are uncertain.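 The apoptosis fraction was the count of cleaved-PARP antibody-stained nuclei relative to all DNA-stained nuclei, imaged in 1,536-well plates. Screening doses were set so most cells survived, and baseline and induced cleaved-PARP levels vary greatly across cell lines.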

Test system: CBRC034 (line from a melanoma biopsy)
Experiment: cleaved PARP positive nuclei fraction relative to DMSO control; melanoma cells; higher = more apoptosis
Conditions: library dose: low library concentration; 72 h

For `COC(=O)c1sccc1S(=O)(=O)Nc1ccc(Nc2ccccc2)cc1OC` + COc1ccc(-c2ccc3c(N4CCOCC4)nc(N4C[C@@H](C)O[C@@H](C)C4)nc3n2)cc1CO [KU0063794] (first compound 1 µM, partner dose 0.02 µM), which “cleaved PARP positive nuclei fraction” value is on record?
The value was 90.8%.

`COc1ccc2c(c1)CCC1C2CCC2(C)C(NCCCCCCN3C(=O)C=CC3=O)CCC12` (stereo unspecified) + COc1cc(N2CCC(N3CCN(C)CC3)CC2)ccc1Nc1ncc(Cl)c(Nc2ccccc2S(=O)(=O)C(C)C)n1 [NVP-TAE684] (first compound 0.4 µM, partner dose 0.08 µM) was tested. Which “cleaved PARP positive nuclei fraction” value did it give?
Its value is 121%.

`O=C(O)C(=O)Nc1sc2c(c1C(=O)O)CCNC2` + COc1cc(N2CCC(N3CCN(C)CC3)CC2)ccc1Nc1ncc(Cl)c(Nc2ccccc2S(=O)(=O)C(C)C)n1 [NVP-TAE684] (first compound 1.66667 µM, partner dose 0.08 µM) was tested. Which “cleaved PARP positive nuclei fraction” value did it give?
The value was 235%.

How did the “cleaved PARP positive nuclei fraction” value turn out when `CCCCCCCCCCCC1=C(O)C(=O)C=C(O)C1=O` [Embelin] + O=c1cc(-c2cccc3c2Sc2ccccc2S3)oc(N2CCOCC2)c1 [KU55933] (first compound 1.2 µM, partner dose 1 µM) was run?
Its value is 89.4%.

Which “cleaved PARP positive nuclei fraction” value does the source give for `COc1cc2ncnc(Nc3ccc(Oc4ccccc4)cc3)c2cc1OC` + CC(C)CCN1c2nc(Nc3cc(F)c(O)c(F)c3)ncc2N(C)C(=O)C1C [BID1870] (first compound 2 µM, partner dose 0.2 µM) here?
Its value is 90.7%.

Which “cleaved PARP positive nuclei fraction” value does the source give for `N#Cc1c(O)c2c(-c3ccc(-c4ccccc4O)cc3)csc2[nH]c1=O` + COC(=O)c1sccc1S(=O)(=O)Nc1ccc(Nc2ccccc2)cc1OC [GSK0660] (first compound 2 µM, partner dose 1 µM) here?
Its value is 85.7%.

Which “cleaved PARP positive nuclei fraction” value does the source give for `NCC(=O)Nc1ccc(-n2nc(C(F)(F)F)cc2-c2ccc3c(ccc4ccccc43)c2)cc1` + COc1cc(N2CCC(N3CCN(C)CC3)CC2)ccc1Nc1ncc(Cl)c(Nc2ccccc2S(=O)(=O)C(C)C)n1 [NVP-TAE684] (first compound 1 µM, partner dose 0.08 µM) here?
The value was 187%.

Which “cleaved PARP positive nuclei fraction” value does the source give for `CCc1ccc(CCOc2ccc(CC3SC(=O)NC3=O)cc2)nc1` (stereo unspecified) [pioglitazone] + O=C(O)C(=O)Nc1sc2c(c1C(=O)O)CCNC2 [TCS401] (first compound 2 µM, partner dose 1.66667 µM) here?
The value was 436%.

How did the “cleaved PARP positive nuclei fraction” value turn out when `CCN(CC)CCCCNc1ncc2cc(-c3cc(OC)cc(OC)c3)c(NC(=O)NC(C)(C)C)nc2n1` + Oc1cc(-c2nc(-c3ccccc3)[nH]c2-c2ccncc2)ccc1Cl [L779450] (first compound 0.1 µM, partner dose 0.2 µM) was run?
Its value is 42.8%.

For `O=C1NC(=O)/C(=C/c2ccc(-c3ccc(F)cc3O)o2)S1` + Cc1cc([N+](=O)[O-])ccc1NS(=O)(=O)c1cc(Cl)ccc1Cl [FH535] (first compound 1 µM, partner dose 1 µM), which “cleaved PARP positive nuclei fraction” value is on record?
Its value is 164%.

How did the “cleaved PARP positive nuclei fraction” value turn out when `c1cc(-c2cnn3cc(-c4ccc(OCCN5CCCCC5)cc4)cnc23)ccn1` [Dorsomorphin] + CCCCCCCCCCCC1=C(O)C(=O)C=C(O)C1=O [Embelin] (first compound 0.4 µM, partner dose 1.2 µM) was run?
The value was 73.2%.

Which “cleaved PARP positive nuclei fraction” value does the source give for `COC(=O)c1sccc1S(=O)(=O)Nc1ccc(Nc2ccccc2)cc1OC` + O=C(O)C(=O)Nc1sc2c(c1C(=O)O)CCNC2 [TCS401] (first compound 1 µM, partner dose 1.66667 µM) here?
Its value is 180%.

Which “cleaved PARP positive nuclei fraction” value does the source give for `O=C(Nc1ccccc1)c1cc([N+](=O)[O-])ccc1Cl` + COc1ccc(-c2ccc3c(N4CCOCC4)nc(N4C[C@@H](C)O[C@@H](C)C4)nc3n2)cc1CO [KU0063794] (first compound 2 µM, partner dose 0.02 µM) here?
Its value is 41.2%.

Which “cleaved PARP positive nuclei fraction” value does the source give for `COC(=O)c1sccc1S(=O)(=O)Nc1ccc(Nc2ccccc2)cc1OC` + Oc1cc(-c2nc(-c3ccccc3)[nH]c2-c2ccncc2)ccc1Cl [L779450] (first compound 1 µM, partner dose 0.2 µM) here?
Its value is 91.7%.

For `O=C1NC(=O)/C(=C/c2ccc(-c3ccc(F)cc3O)o2)S1` + CCCCCCCCCCCC1=C(O)C(=O)C=C(O)C1=O [Embelin] (first compound 1 µM, partner dose 1.2 µM), which “cleaved PARP positive nuclei fraction” value is on record?
The value was 91.2%.

For `COc1cc(N2CCC(N3CCN(C)CC3)CC2)ccc1Nc1ncc(Cl)c(Nc2ccccc2S(=O)(=O)C(C)C)n1` + CC(C)CCN1c2nc(Nc3cc(F)c(O)c(F)c3)ncc2N(C)C(=O)C1C [BID1870] (first compound 0.08 µM, partner dose 0.2 µM), which “cleaved PARP positive nuclei fraction” value is on record?
Its value is 57.9%.

How did the “cleaved PARP positive nuclei fraction” value turn out when `COc1cc2ncnc(Nc3ccc(Oc4ccccc4)cc3)c2cc1OC` + O=C1NC(=O)/C(=C/c2ccc(-c3ccc(F)cc3O)o2)S1 [AS252424] (first compound 2 µM, partner dose 1 µM) was run?
Its value is 76.1%.

How did the “cleaved PARP positive nuclei fraction” value turn out when `CCN(CC)CCCCNc1ncc2cc(-c3cc(OC)cc(OC)c3)c(NC(=O)NC(C)(C)C)nc2n1` + COc1cc(N2CCC(N3CCN(C)CC3)CC2)ccc1Nc1ncc(Cl)c(Nc2ccccc2S(=O)(=O)C(C)C)n1 [NVP-TAE684] (first compound 0.1 µM, partner dose 0.08 µM) was run?
The value was 181%.

For `O=C(Nc1ccccc1)c1cc([N+](=O)[O-])ccc1Cl` + Cc1cc([N+](=O)[O-])ccc1NS(=O)(=O)c1cc(Cl)ccc1Cl [FH535] (first compound 2 µM, partner dose 1 µM), which “cleaved PARP positive nuclei fraction” value is on record?
Its value is 828%.

`COc1ccc(-c2ccc3c(N4CCOCC4)nc(N4C[C@@H](C)O[C@@H](C)C4)nc3n2)cc1CO` + Cn1cc(/C=C2\C(=O)Nc3cccnc32)c2ccccc21 [GW441756] (first compound 0.02 µM, partner dose 0.4 µM) was tested. Which “cleaved PARP positive nuclei fraction” value did it give?
The value was 90.3%.

With `COc1cc2c(Oc3ccc4[nH]c(C)cc4c3F)ncnc2cc1OCCCN1CCCC1` [cediranib] + O=c1cc(-c2cccc3c2Sc2ccccc2S3)oc(N2CCOCC2)c1 [KU55933] (first compound 0.4 µM, partner dose 1 µM) as the compound, how does the “cleaved PARP positive nuclei fraction” value read?
The value was 409%.
